In the M2OR odorant receptor database:
Substitutions are numbered along the chain they refer to. Only a part is listed here, and it is no random draw. Calls are pooled over several reports, among them a noisy single-well screen. The list shows a part of the results.

Chains of the proteins cited; added tags and fusions are not shown. A line that says so, or that is headed by a name, gives the form on record, which may keep a tag or linker.
OR1E2, as listed by the source: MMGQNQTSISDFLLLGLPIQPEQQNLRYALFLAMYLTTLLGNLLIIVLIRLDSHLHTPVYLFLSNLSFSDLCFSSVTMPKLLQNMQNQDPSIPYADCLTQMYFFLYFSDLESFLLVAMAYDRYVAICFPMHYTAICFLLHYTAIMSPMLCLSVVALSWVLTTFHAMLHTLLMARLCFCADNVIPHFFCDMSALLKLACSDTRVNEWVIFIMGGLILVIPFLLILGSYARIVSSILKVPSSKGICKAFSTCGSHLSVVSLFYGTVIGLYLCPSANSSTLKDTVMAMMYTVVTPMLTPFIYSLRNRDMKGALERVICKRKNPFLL

Tests used:
Settings in all cases: stereoisomer not certain
OR1C1 (Homo sapiens) = biological target: T1, OR1C1 (Homo sapiens) (UniProt Q15619)
T1 sequence (whole entry): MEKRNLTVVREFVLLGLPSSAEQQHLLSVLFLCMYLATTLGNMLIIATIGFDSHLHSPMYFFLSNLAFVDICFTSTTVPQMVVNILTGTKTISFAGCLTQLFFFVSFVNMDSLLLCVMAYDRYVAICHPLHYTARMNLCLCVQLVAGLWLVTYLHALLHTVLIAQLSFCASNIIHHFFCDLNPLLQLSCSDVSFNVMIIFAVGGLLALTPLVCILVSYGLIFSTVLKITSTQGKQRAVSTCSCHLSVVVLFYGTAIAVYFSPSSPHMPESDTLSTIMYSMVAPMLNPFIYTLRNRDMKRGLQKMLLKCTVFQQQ
Summary of the method: (§1)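 Transient luciferase assays in mammalian cell lines were common, though methods varied by source. The values come from published papers and their supplementary material, with extra details from the original authors when needed. Responsive refers to a measured signal the original authors judged statistically different from baseline, and non-responsive (inactive) to the remainder.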

OR1D2 (Homo sapiens) = biological target: T2, OR1D2 (Homo sapiens) (UniProt P34982)
T2 sequence (whole entry): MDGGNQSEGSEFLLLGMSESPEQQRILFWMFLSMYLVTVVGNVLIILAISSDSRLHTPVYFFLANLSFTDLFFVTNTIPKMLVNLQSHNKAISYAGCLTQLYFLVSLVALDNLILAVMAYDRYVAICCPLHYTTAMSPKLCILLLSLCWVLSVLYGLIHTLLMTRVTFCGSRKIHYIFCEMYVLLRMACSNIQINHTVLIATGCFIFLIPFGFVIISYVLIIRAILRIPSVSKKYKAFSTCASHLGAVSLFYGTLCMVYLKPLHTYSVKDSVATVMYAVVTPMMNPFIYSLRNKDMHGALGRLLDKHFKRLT
Summary of the method: as §1

OR1D5 (Homo sapiens) = biological target: T3, OR1D5 (Homo sapiens) (UniProt P58170)
T3 sequence (whole entry): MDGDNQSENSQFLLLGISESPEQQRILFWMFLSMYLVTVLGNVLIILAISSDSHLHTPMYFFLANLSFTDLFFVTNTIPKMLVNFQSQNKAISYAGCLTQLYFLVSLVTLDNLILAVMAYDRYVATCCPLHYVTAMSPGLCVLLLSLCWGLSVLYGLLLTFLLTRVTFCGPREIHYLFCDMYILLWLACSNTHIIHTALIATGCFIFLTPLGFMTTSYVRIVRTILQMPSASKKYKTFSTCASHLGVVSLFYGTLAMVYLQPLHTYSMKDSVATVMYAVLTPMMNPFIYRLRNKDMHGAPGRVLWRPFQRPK
Summary of the method: as §1

OR1D5 = tested on: T4, OR1D5
T4 sequence (whole entry): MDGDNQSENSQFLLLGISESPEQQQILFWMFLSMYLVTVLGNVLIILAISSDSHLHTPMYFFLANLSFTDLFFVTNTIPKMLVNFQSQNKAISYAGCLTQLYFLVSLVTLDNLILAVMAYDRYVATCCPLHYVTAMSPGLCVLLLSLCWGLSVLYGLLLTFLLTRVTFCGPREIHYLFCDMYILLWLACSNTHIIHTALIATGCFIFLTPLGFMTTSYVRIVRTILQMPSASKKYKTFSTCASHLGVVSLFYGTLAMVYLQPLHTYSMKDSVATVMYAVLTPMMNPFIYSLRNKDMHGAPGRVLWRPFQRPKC
Summary of the method: as §1

OR1E1 [1] = tested on: T5, OR1E1
T5 sequence (whole entry): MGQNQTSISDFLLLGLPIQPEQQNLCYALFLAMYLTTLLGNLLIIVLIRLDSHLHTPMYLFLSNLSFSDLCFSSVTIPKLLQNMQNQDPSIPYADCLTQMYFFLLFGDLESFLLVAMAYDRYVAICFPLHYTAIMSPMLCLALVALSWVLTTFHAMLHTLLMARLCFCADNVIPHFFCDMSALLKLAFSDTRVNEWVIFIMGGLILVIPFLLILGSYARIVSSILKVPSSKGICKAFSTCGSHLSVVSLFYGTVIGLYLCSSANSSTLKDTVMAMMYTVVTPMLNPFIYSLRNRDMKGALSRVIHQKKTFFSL
Summary of the method: as §1

OR1E1 [2] = tested on: T6, OR1E1; remark: listed apart in the source
T6 sequence (whole entry): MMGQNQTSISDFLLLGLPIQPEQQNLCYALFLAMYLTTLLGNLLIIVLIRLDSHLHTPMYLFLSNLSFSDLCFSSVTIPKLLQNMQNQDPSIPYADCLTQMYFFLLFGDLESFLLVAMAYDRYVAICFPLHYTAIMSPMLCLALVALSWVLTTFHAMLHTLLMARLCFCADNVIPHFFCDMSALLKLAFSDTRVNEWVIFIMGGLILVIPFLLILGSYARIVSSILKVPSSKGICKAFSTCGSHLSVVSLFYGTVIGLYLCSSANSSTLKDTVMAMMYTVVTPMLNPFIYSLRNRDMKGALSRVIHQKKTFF
Summary of the method: as §1

OR1E2 (Homo sapiens) = biological target: T7, OR1E2 (Homo sapiens) (UniProt P47887)
T7 sequence (whole entry): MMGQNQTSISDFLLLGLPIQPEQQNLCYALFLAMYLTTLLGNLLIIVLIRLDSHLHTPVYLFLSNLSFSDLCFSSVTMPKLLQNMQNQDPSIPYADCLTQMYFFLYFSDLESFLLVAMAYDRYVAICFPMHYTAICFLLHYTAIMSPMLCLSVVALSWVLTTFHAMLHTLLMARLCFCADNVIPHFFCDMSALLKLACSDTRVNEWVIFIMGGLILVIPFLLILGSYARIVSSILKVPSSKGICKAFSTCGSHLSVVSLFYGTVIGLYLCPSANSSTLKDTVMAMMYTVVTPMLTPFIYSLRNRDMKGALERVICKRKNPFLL
Summary of the method: as §1

OR1E2 = tested on: T8, OR1E2
T8 sequence (whole entry): T7 sequence (whole entry) with C27R
Summary of the method: as §1

OR1F1 = tested on: T9, OR1F1
T9 sequence (whole entry): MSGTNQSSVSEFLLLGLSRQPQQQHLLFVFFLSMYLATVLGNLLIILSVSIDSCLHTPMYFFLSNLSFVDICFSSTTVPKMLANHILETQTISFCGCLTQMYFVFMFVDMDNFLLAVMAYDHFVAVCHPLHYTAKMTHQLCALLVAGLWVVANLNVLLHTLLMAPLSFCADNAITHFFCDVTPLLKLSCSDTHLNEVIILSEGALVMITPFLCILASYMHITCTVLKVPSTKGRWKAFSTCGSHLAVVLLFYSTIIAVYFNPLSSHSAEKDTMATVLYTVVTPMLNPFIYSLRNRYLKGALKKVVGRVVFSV
Summary of the method: as §1

OR1FC = tested on: T10, OR1FC
T10 sequence (whole entry): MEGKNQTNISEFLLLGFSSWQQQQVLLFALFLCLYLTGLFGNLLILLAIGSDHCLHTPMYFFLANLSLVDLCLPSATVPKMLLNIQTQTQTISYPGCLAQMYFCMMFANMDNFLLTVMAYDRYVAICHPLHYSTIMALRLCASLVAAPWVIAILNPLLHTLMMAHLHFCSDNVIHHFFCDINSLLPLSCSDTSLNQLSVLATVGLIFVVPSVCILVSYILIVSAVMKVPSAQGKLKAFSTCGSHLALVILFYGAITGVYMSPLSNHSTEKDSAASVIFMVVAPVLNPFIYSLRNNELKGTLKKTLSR
Summary of the method: as §1

Measured: odorant receptor agonist call;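 note: active if original authors judged signal statistically different from baseline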

CS
inactive: all assays above
